In the supplement of paper PMC8728848:
Some of the results follow.

Key:
Experiment in all cases: glycan array binding signal (z-score within array); higher = stronger binding
Conditions in all cases: glycan notation: IUPAC condensed, linker removed
[1] = biological target: GlcNAc(b1-3)Gal(b1-4)GlcNAc(b1-3)Gal(b1-4)GlcNAc(b1-3)GalNAc
Method in brief: (§1)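 Glycan array data were curated from 3228 arrays in the Consortium for Functional Glycomics database and kept only where the protein sequence was available. Glycan names were converted to IUPAC-condensed notation, and columns mapping to the same glycan were averaged. The binding signal is a within-array Z-score, averaged across arrays of the same protein sequence at different concentrations or buffers and across linkers. Negative Z-scores can be read as non-binding.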

[2] = biological target: GlcNAc(b1-3)Gal(b1-4)GlcNAc(b1-3)GalNAc
Method in brief: as §1

[3] = biological target: GlcNAc(b1-3)Gal(b1-4)GlcNAc(b1-3)[GlcNAc(b1-3)Gal(b1-4)GlcNAc(b1-3)]GalNAc
Method in brief: as §1

[4] = biological target: GlcNAc(b1-3)Gal(b1-4)GlcNAc(b1-6)[Gal(b1-3)]GalNAc
Method in brief: as §1

[5] = biological target: GlcNAc(b1-3)Gal(b1-4)GlcNAc(b1-6)[GlcNAc(b1-3)Gal(b1-3)]GalNAc
Method in brief: as §1

[6] = biological target: GlcNAc(b1-3)Gal(b1-4)GlcNAc(b1-6)[GlcNAc(b1-3)]Gal(b1-4)GlcNAc
Method in brief: as §1

GlcNAc(b1-3)GalNAc = biological target: GlcNAc(b1-3)GalNAc
Method in brief: as §1

GlcNAc(b1-3)Man = biological target: GlcNAc(b1-3)Man
Method in brief: as §1

[7] = biological target: GlcNAc(b1-3)[GlcNAc(b1-4)][GlcNAc(b1-6)]GlcNAc
Method in brief: as §1

[8] = biological target: GlcNAc(b1-3)[GlcNAc(b1-6)]Gal(b1-4)GlcNAc
Method in brief: as §1

[9] = biological target: GlcNAc(b1-3)[GlcNAc(b1-6)]GalNAc
Method in brief: as §1

[10] = biological target: GlcNAc(b1-4)Gal(b1-4)GlcNAc
Method in brief: as §1

GlcNAc(b1-4)GlcNAc = biological target: GlcNAc(b1-4)GlcNAc
Method in brief: as §1

[11] = biological target: GlcNAc(b1-4)GlcNAc(b1-4)GlcNAc
Method in brief: as §1

[12] = biological target: GlcNAc(b1-4)GlcNAc(b1-4)GlcNAc(b1-4)GlcNAc(b1-4)GlcNAc
Method in brief: as §1

[13] = biological target: GlcNAc(b1-4)GlcNAc(b1-4)GlcNAc(b1-4)GlcNAc(b1-4)GlcNAc(b1-4)GlcNAc
Method in brief: as §1

[14] = biological target: GlcNAc(b1-4)[GlcNAc(b1-6)]GalNAc
Method in brief: as §1

[15] = biological target: GlcNAc(b1-6)Gal(b1-4)GlcNAc
Method in brief: as §1

GlcNAc(b1-6)GalNAc = biological target: GlcNAc(b1-6)GalNAc
Method in brief: as §1

[16] = biological target: GlcNAc6S(b1-3)Gal(b1-4)GlcNAc
Method in brief: as §1

Kdn(a2-3)Gal(b1-3)GalNAc = biological target: Kdn(a2-3)Gal(b1-3)GalNAc
Method in brief: as §1

Kdn(a2-3)Gal(b1-3)GlcNAc = biological target: Kdn(a2-3)Gal(b1-3)GlcNAc
Method in brief: as §1

Kdn(a2-3)Gal(b1-4)Glc = biological target: Kdn(a2-3)Gal(b1-4)Glc
Method in brief: as §1

Kdn(a2-3)Gal(b1-4)GlcNAc = biological target: Kdn(a2-3)Gal(b1-4)GlcNAc
Method in brief: as §1

[17] = biological target: Kdn(a2-3)Gal(b1-4)[Fuc(a1-3)]GlcNAc
Method in brief: as §1

Kdn(a2-6)Gal(b1-4)GlcNAc = biological target: Kdn(a2-6)Gal(b1-4)GlcNAc
Method in brief: as §1

[18] = biological target: Man(a1-2)Man(a1-2)Man(a1-3)Man
Method in brief: as §1

[19] = biological target: Man(a1-2)Man(a1-2)Man(a1-6)[Man(a1-3)]Man
Method in brief: as §1

Man(a1-2)Man(a1-3)Man = biological target: Man(a1-2)Man(a1-3)Man
Method in brief: as §1

[20] = biological target: Man(a1-2)Man(a1-3)[Man(a1-2)Man(a1-6)]Man
Method in brief: as §1

[21] = biological target: Man(a1-2)Man(a1-3)[Man(a1-2)Man(a1-6)]Man(a1-6)[Man(a1-2)Man(a1-2)Man(a1-3)]Man
Method in brief: as §1

[22] = biological target: Man(a1-2)Man(a1-3)[Man(a1-2)Man(a1-6)]Man(a1-6)[Man(a1-2)Man(a1-2)Man(a1-3)]Man(b1-4)GlcNAc(b1-4)GlcNAc
Method in brief: as §1

[23] = biological target: Man(a1-2)Man(a1-3)[Man(a1-6)]Man(a1-6)[Man(a1-2)Man(a1-3)]Man(b1-4)GlcNAc(b1-4)GlcNAc
Method in brief: as §1

[24] = biological target: Man(a1-2)Man(a1-6)[Man(a1-3)]Man(a1-6)[Man(a1-2)Man(a1-2)Man(a1-3)]Man
Method in brief: as §1

[25] = biological target: Man(a1-2)Man(a1-6)[Man(a1-3)]Man(a1-6)[Man(a1-2)Man(a1-2)Man(a1-3)]Man(b1-4)GlcNAc(b1-4)GlcNAc
Method in brief: as §1

Man(a1-3)[Man(a1-6)]Man = biological target: Man(a1-3)[Man(a1-6)]Man
Method in brief: as §1

[26] = biological target: Man(a1-3)[Man(a1-6)]Man(a1-6)[Man(a1-2)Man(a1-3)]Man(b1-4)GlcNAc(b1-4)GlcNAc
Method in brief: as §1

[27] = biological target: Man(a1-3)[Man(a1-6)]Man(a1-6)[Man(a1-3)]Man
Method in brief: as §1

[28] = biological target: Man(a1-3)[Man(a1-6)]Man(a1-6)[Man(a1-3)]Man(b1-4)GlcNAc(b1-4)GlcNAc
Method in brief: as §1

[29] = biological target: Man(a1-3)[Man(a1-6)]Man(b1-4)GlcNAc(b1-4)GlcNAc
Method in brief: as §1

[30] = biological target: Man(a1-3)[Man(a1-6)]Man(b1-4)GlcNAc(b1-4)[Fuc(a1-6)]GlcNAc
Method in brief: as §1

Man(a1-6)Man = biological target: Man(a1-6)Man
Method in brief: as §1

Man(b1-4)GlcNAc = biological target: Man(b1-4)GlcNAc
Method in brief: as §1

MurNAc(b1-4)GlcNAc = biological target: MurNAc(b1-4)GlcNAc
Method in brief: as §1

Neu5Ac(a2-3)Gal = biological target: Neu5Ac(a2-3)Gal
Method in brief: as §1

B1: EUL D1A first (Oryza sativa) (protein)
chain: MFGFGHHHNQAPAAPSDPNQIFKIFCRANENYCLTVRDSAVVLAPVNPKDEHQHWFKDMRFSTKVKDGEGMPAFALVNKATGLAVKHSLGQSHPVKLVPFNPEYEDASVLWTESKDVGKGFRCIRMVNNTRLNLDAFHGDKDHGGVRDGTTVVLWEWCKGDNQSWKILPWGPEAHSSSPGAATILEQKLISEEDLNSAVDHHHHHH
glycan array binding signal (z-score) [1]: -0.04 | glycan array binding signal (z-score) [2]: -0.003 | glycan array binding signal (z-score) [3]: 1.74 | glycan array binding signal (z-score) [4]: -0.67 | glycan array binding signal (z-score) [5]: -0.216 | glycan array binding signal (z-score) [6]: -0.411 | glycan array binding signal (z-score) (GlcNAc(b1-3)GalNAc): -0.716 | glycan array binding signal (z-score) (GlcNAc(b1-3)Man): 0.924 | glycan array binding signal (z-score) [7]: 0.027 | glycan array binding signal (z-score) [8]: 6.85 | glycan array binding signal (z-score) [9]: -0.649 | glycan array binding signal (z-score) [10]: -0.14 | glycan array binding signal (z-score) (GlcNAc(b1-4)GlcNAc): 0.742 | glycan array binding signal (z-score) [11]: -0.702 | glycan array binding signal (z-score) [12]: -1.15 | glycan array binding signal (z-score) [13]: -0.541 | glycan array binding signal (z-score) [14]: -0.149 | glycan array binding signal (z-score) [15]: 0.186 | glycan array binding signal (z-score) (GlcNAc(b1-6)GalNAc): 0.78 | glycan array binding signal (z-score) [16]: -1.18 | glycan array binding signal (z-score) (Kdn(a2-3)Gal(b1-3)GalNAc): 0.717 | glycan array binding signal (z-score) (Kdn(a2-3)Gal(b1-3)GlcNAc): 0.324 | glycan array binding signal (z-score) (Kdn(a2-3)Gal(b1-4)Glc): 0.202 | glycan array binding signal (z-score) (Kdn(a2-3)Gal(b1-4)GlcNAc): -1.25 | glycan array binding signal (z-score) [17]: 0.073 | glycan array binding signal (z-score) (Kdn(a2-6)Gal(b1-4)GlcNAc): -0.931 | glycan array binding signal (z-score) [18]: -1.22 | glycan array binding signal (z-score) [19]: 2.01 | glycan array binding signal (z-score) (Man(a1-2)Man(a1-3)Man): 0.615 | glycan array binding signal (z-score) [20]: -1.03 | glycan array binding signal (z-score) [21]: -0.88 | glycan array binding signal (z-score) [22]: -0.336 | glycan array binding signal (z-score) [23]: 1.15 | glycan array binding signal (z-score) [24]: -0.131 | glycan array binding signal (z-score) [25]: -0.834 | glycan array binding signal (z-score) (Man(a1-3)[Man(a1-6)]Man): 0.007 | glycan array binding signal (z-score) [26]: 0.578 | glycan array binding signal (z-score) [27]: -1.5 | glycan array binding signal (z-score) [28]: -0.508 | glycan array binding signal (z-score) [29]: 0.653 | glycan array binding signal (z-score) [30]: -0.172 | glycan array binding signal (z-score) (Man(a1-6)Man): -0.455 | glycan array binding signal (z-score) (Man(b1-4)GlcNAc): -0.261 | glycan array binding signal (z-score) (MurNAc(b1-4)GlcNAc): -0.04 | glycan array binding signal (z-score) (Neu5Ac(a2-3)Gal): -1.02
